Experimental data as given in PubChem BioAssay AID504467 (National Center for Advancing Translational Sciences (NCATS), 2011).
Hit rate of the full screen: of about 330,000 compounds, about 7,700 (2.3%) were called active. This list was built around the results that the source calls inconclusive (neither active nor inactive); the mix of calls is not that of the screen. Calls come from the whole dose curve; as a rule, active = well fitted inhibition curve with a large enough effect; inconclusive = small, poorly fitted or top-dose-only effect, or effect the other way; inactive = flat fitted curve, though single readings scatter. Potencies beside an inconclusive call are fits to weak or partial responses and may not hold up.

Assay: qHTS screen for small molecules that inhibit ELG1-dependent DNA repair in human embryonic kidney (HEK293T) cells expressing luciferase-tagged ELG1; note: nearly all actives have a fitted effect of over 55% in size
Details: HEK293T ELG1-luciferase reporter, luminescence, 16 h, DNA damage induced by 5-fluorouridine; series mostly up to 46.1 µM
Method in brief: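 HEK293T cells expressing luciferase-tagged ELG1 (2,000/well) received 5-Fluorouridine plus compound or DMSO for 16 hr at 37 °C. Luciferase was read by ONE-Glo luminescence after 30 min at room temperature.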
Potency is the fitted concentration of half-maximal effect.

Structure (SMILES) | Potency
O=C(NNC(=O)c1ccc2ccccc2c1O)c1ccccc1Cl | inactive
O=C(CSc1nc(N2CCOCC2)nc(N2CCOCC2)n1)Nc1ccc([N+](=O)[O-])cc1 | active: 16.4 µM
COc1ccc(S(=O)(=O)N(C)C)cc1NC(=O)CN1C(=O)NC2(CCCC2)C1=O | inactive
CCc1ccccc1NC(=S)N1CCN(c2ccccc2F)CC1 | inactive
Cc1cccc(NC(=O)c2sc3ncn(CC(=O)N4CCN(c5ccccn5)CC4)c(=O)c3c2C)c1 | inconclusive: 18.3 µM [inhibitor, single point]
O=C(Nc1ccc(Cl)cn1)c1ccc(Oc2ccccc2)cc1 | inconclusive: 8.2 µM [activator, partial curve]
CN(C)C(=O)CCc1ccc2c3c([nH]c2c1)[C@]1(C)[C@@H](C(=O)N2CCCCC2)C[C@H](CC(=O)NC(C)(C)C)C(=O)N1CC3 | inactive
CN(CC(=O)Nc1ccc(F)cc1)CC(=O)N1CCCCC1 | inactive
O=C(O)c1ccc(Cn2nnc3sc4c(c3c2=O)CCCC4)cc1 | inconclusive: 20.6 µM [activator, partial curve]
C/C(=N\Nc1ncc(Cl)cc1Cl)c1ccccn1 | inconclusive: 0.326 µM [activator, partial curve, poor fit]
Cc1c(C)n(C)c2ccc(C(=O)NCCN3CCOCC3)cc12 | inactive
COCCNc1nc2sc3c(c2c(=O)n1Cc1ccco1)CCCCC3 | inconclusive: 20.6 µM [activator, partial curve]
O=C(N/N=C/c1cc([N+](=O)[O-])cc([N+](=O)[O-])c1O)/C(=C\c1cccs1)NC(=O)c1ccccc1 | inactive
COc1cccc(NC(=S)NNC(=O)c2c([N+](=O)[O-])c(C)nn2C)c1 | inactive
O=C(c1ccccc1)C1CN(c2ccccc2)CC1c1ccc(Cl)cc1 (stereo not given) | inactive
COc1cccc(/C=C/C(=O)Nc2ccc(OC)nc2)c1 | inactive
Cc1cccc2nc(CNC(=O)CC3C(=O)NCCN3Cc3cccc(F)c3)cn12 (stereo not given) | inactive
Cc1ccc(/C=N/NC(=O)c2ccc3ccccc3c2)s1 | inactive
O=C(CCCC(=O)N1CCN(c2ccccc2F)CC1)c1ccccc1 | inconclusive: 20.6 µM [activator, partial curve]
COC(=O)c1ccc(NCN2C(=O)C3C4CCC(C4)C3C2=O)cc1 (stereo not given) | inconclusive: 29.1 µM [activator, single point]
COc1cc(NC(=O)CN(C)S(=O)(=O)c2ccc3c(c2)CC(C)N3C(C)=O)cc(OC)c1OC (stereo not given) | inconclusive: 18.3 µM [inhibitor, single point]
C=CCn1c(SCC#N)nnc1-c1ccc2ncccc2c1 | inconclusive: 13 µM [activator, partial curve, poor fit]
COc1cccc(OC)c1C(=O)Nn1c(-c2cccs2)nc2ccccc2c1=O | inconclusive: 9.2 µM [inhibitor, partial curve]
O=C1CCCc2c1cc(C(=O)NCc1ccco1)c(=O)n2-c1ccc(Cl)cc1 | inactive
CCOC(=O)CN(C)C(=O)CCc1nnc(-c2ccsc2)o1 | inactive

Single entries from above:
COc1cc(NC(=O)CN(C)S(=O)(=O)c2ccc3c(c2)CC(C)N3C(C)=O)cc(OC)c1OC (stereo not given) – Potency: inconclusive: 18.3 µM [inhibitor, single point]
Cc1ccc(/C=N/NC(=O)c2ccc3ccccc3c2)s1 – Potency: inactive
O=C1CCCc2c1cc(C(=O)NCc1ccco1)c(=O)n2-c1ccc(Cl)cc1 – Potency: inactive

Next compounds follow.

Structure (SMILES) | Potency
C=CCn1c(=O)c2c3c(sc2n2c(Nc4ccccc4)nnc12)CCCC3 | active: 20.6 µM
COc1ccc(S(=O)(=O)N2CCOCC2)cc1NC(=O)CSc1nnc(C2CC2)n1N | inactive
CCOc1ccc2nc(SCC(=O)N(CCOC)c3c(N)n(Cc4ccccc4)c(=O)[nH]c3=O)[nH]c2c1 | inactive
c1csc(CNc2nc(-c3cccs3)nc3ccccc23)c1 | inactive
NC(=O)Cc1nc(-c2ccc([N+](=O)[O-])cc2)cs1 | active: 18.3 µM
CCOC(=O)c1cc(-c2ccc3c(c2)OCCO3)nc2c1c(C)nn2CCC#N | active: 6.51 µM
Cc1ccc(-c2cc(C(F)F)n3ncc(C(=O)N4CCN5CCCC5C4)c3n2)cc1 (stereo not given) | inconclusive: 6.51 µM [inhibitor, partial curve]
O=C1CN(C(=O)COC(=O)/C=C/c2ccco2)c2ccccc2N1 | inactive
CC(C)(C)c1cc(NCCCn2ccnc2)n2ncc(-c3ccccc3)c2n1 | inconclusive: 20.6 µM [activator, partial curve]
CS(=O)(=O)c1ccc2nc(NC(=O)Oc3ccccc3)sc2c1 | inactive
Cc1ccc(C)c(NC(=O)CSc2ccc(S(=O)(=O)N3CCCC3)cn2)c1 | inactive
COc1cccc(-c2nn(-c3ccccc3)cc2/C=C\C(=O)c2cccs2)c1 | inconclusive: 35.5 µM [inhibitor, single point]
Cc1ccccc1OCCC(=O)Nc1ccc(F)c(Cl)c1 | inconclusive: 20.6 µM [inhibitor, single point]
COc1ccc(C(=O)O/N=C(\N)c2ccc(OC)c(OC)c2)c(OC)c1 | inconclusive: 16.4 µM [activator, partial curve]
O=C(O)COc1ccccc1-c1ccccc1 | inactive
N#CC(c1ccccc1)c1cccc(Cl)n1 (stereo not given) | inactive
COC(=O)CCCC(=O)N1CCCC(C(=O)c2ccc(-c3ccccc3)cc2)C1 (stereo not given) | inactive
Cc1ccc(C(=O)Nc2ccc([N+](=O)[O-])cn2)o1 | inconclusive: 14.6 µM [activator, partial curve]
CCN(CC)S(=O)(=O)c1ccc2c(c1)N(CC(=O)N1CCCC1)C(=O)CO2 | inactive
C/C(CCC12CC3CC(CC(C3)C1)C2)=N\NC(N)=S | inconclusive: 29.1 µM [inhibitor, single point]
CC1CCN(S(=O)(=O)c2ccc3c(c2)c(=O)c(C(=O)NCc2ccco2)cn3C)CC1 | active: 18.4 µM
CN(C)CCCn1cnc2c(c1=N)C(c1ccccc1)c1ccc3ccccc3c1O2 (stereo not given) | inconclusive: 29.1 µM [inhibitor, single point]
Cc1cc(C(=O)CSc2nc3ccccc3c(=O)n2C)c(C)n1CC1CCCO1 (stereo not given) | inconclusive: 2.06 µM [inhibitor, partial curve, poor fit]
CCCCNC(=O)CNC(=S)N(Cc1ccccc1)Cc1cccs1 | inconclusive: 18.3 µM [inhibitor, single point]
Cc1cc(NC(=O)COC(=O)c2oc3c(ccc4ccccc43)c2C)no1 | inconclusive: 16.4 µM [activator, partial curve, poor fit]
